In paper PMC2955581:
These are yes or no findings as the source states them, for the method shown. For some of these results: Binding seen in cells or lysates may run through a third protein. Some entries that bind do so weakly or less than the wild type. Sequences can lack the tags named with a protein.

Protein sequences, listed by entry. Tags and fused reporters are not part of them.
UniProt O15372: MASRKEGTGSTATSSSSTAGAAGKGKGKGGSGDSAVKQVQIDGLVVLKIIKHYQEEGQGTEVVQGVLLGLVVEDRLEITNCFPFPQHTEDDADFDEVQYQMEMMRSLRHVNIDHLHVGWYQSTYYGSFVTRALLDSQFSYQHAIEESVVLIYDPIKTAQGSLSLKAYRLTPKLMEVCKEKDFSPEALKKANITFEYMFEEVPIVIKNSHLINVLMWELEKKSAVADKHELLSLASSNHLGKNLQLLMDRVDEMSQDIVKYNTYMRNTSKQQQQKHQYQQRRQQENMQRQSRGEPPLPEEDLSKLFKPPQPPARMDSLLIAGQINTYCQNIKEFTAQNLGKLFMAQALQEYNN

Columns and labels:
[1] = target: T1, Flag-gephyrin (N-terminally Flag-tagged full-length human gephyrin) (human) (UniProt Q9NQX3); assay: co-IP; HEK 293T cells cotransfected with Flag- and Myc-tagged proteins; lysis and washes in RIPA buffer; IP with anti-Flag antibody, blot with anti-Myc antibody
T1 sequence: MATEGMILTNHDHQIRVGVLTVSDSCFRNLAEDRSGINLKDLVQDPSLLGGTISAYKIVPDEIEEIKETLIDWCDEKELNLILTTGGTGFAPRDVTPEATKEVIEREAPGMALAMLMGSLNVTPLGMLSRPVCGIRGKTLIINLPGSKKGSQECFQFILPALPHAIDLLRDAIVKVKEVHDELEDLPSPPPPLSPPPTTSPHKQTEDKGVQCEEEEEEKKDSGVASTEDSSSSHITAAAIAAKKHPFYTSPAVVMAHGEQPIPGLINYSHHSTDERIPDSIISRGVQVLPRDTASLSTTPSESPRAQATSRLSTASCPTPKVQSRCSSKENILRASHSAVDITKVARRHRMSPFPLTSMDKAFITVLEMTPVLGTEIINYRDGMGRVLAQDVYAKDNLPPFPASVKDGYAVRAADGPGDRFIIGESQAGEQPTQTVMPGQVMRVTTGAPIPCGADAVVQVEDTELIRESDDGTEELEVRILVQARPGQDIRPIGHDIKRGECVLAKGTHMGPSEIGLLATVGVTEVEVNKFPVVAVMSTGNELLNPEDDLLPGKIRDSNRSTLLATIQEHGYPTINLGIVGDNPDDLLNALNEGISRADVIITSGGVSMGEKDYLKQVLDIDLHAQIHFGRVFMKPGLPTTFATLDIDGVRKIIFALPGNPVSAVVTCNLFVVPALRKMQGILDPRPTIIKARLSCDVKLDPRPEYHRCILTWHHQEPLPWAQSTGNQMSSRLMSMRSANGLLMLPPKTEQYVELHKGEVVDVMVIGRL

[2] = target: T2, Flag-CB (N-terminally Flag-tagged full-length human collybistin) (human) (UniProt O43307); assay: as above
T2 sequence: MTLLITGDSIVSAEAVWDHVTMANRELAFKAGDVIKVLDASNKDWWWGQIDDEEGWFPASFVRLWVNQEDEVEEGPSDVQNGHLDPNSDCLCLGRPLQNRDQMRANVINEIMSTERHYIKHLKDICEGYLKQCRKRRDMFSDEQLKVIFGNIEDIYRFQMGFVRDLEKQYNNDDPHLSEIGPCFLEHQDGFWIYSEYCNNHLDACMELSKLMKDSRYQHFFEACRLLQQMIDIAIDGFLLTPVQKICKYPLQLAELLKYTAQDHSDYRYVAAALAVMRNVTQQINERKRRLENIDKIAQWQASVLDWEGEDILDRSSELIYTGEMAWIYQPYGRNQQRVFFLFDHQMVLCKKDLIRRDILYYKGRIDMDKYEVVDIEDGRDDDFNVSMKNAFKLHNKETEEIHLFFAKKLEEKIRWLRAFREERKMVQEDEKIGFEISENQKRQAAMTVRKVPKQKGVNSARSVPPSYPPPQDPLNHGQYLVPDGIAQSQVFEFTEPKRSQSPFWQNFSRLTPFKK

[3] = target: T3, GAL4BD-CB_(SH3-) (human collybistin lacking the N-terminal SH3 domain fused to the GAL4 DNA-binding domain) (human) (UniProt O43307); assay: two-hybrid; Matchmaker GAL4 system 3; GAL4BD baits in pGBKT7, GAL4AD preys; yeast AH109; growth on SD/-Leu/-Trp/-Ade/-His/X-alpha-Gal/5 mM 3-AT, 30°C; library screen and retest by cotransformation
T3 sequence: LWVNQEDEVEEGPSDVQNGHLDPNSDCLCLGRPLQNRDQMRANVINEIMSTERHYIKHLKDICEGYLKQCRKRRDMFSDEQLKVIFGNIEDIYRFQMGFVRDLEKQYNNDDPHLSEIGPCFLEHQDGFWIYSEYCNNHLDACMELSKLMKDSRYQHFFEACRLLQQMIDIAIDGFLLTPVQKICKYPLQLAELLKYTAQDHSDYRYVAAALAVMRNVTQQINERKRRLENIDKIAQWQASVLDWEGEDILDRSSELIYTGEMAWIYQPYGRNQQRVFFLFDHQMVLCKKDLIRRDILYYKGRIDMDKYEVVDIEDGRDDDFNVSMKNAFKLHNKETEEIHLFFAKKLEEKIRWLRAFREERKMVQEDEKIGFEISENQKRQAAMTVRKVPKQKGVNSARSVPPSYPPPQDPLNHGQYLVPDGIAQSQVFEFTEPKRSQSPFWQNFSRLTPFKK

[4] = target: T4, GAL4BD-CB (full-length human collybistin fused to the GAL4 DNA-binding domain) (human) (UniProt O43307); assay: as above
T4 sequence: T2 sequence

Substance | binding [1] | binding [2] | binding [3] | binding [4]
Myc-eIF3H (N-terminally Myc-tagged full-length human eIF3H) (from UniProt O15372 1-352) | binds | binds |  | 
GAL4AD-eIF3H (p40 subunit of the eukaryotic translation initiation factor 3, two-hybrid prey) (from UniProt O15372 1-352) |  |  | binds | binds
